Laboratory results as given in PMC4869360, “An allosteric role for receptor activity-modifying proteins in defining GPCR pharmacology” (Cell Discovery, 2016).
Changes are numbered by the printed parent chain. Where two headings read alike, the source gives them in different places.

Sequences of proteins named here, by UniProt entry; tags and fusion partners are left off. A change or cut given only in a name is not applied to a line headed by its entry. Residues count along the entry.
UniProt O60894, 27-148: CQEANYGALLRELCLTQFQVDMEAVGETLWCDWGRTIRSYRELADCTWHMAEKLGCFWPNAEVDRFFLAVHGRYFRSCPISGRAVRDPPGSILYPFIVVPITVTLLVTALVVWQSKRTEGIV

Key:
[1] = target: CT(a) receptor, M48A mutant (Homo sapiens, UniProt P30988, M48A); test: cell-based
Text: (§1) This is the insert-negative form of the receptor and is referred to as hCT(a), to comply with International Union of Pharmacology guidelines. Myc tagged RAMP1 and untagged RAMP3 constructs were used for AMY receptor experiments.
(§2) Primers were purchased from Integrated DNA Technologies Ltd (Coralville, IA, USA). Kapa HiFi readymix (Kapa Biosystems, Wilmington, MA, USA) or Primestar HS enzymes (TaKaRa Bio, Kyoto, Japan) were substituted for Pfu polymerase.
(§3) After stimulation the reaction was stopped by removing media and adding 50 μl per well of ice-cold absolute ethanol. Plates were stored at −30 °C for up to 4 days before the measurement of cAMP was performed.

[2] = target: CT(a) receptor, N124A mutant (Homo sapiens, UniProt P30988, N124A); test: cell-based
Text: as §1, §2, §3

[3] = target: CT(a) receptor, Q52A mutant (Homo sapiens, UniProt P30988, Q52A); test: cell-based
Text: as §1, §2, §3

[4] = target: CT(a) receptor, Y56A mutant (Homo sapiens, UniProt P30988, Y56A); test: cell-based
Text: as §1, §2, §3

[5] = target: T1, CT(a) receptor, R126A mutant (Homo sapiens, UniProt P30988, R126A); test: cAMP assay, R126A CT(a); type: cell-based
T1 sequence (P30988 25-474 R126A): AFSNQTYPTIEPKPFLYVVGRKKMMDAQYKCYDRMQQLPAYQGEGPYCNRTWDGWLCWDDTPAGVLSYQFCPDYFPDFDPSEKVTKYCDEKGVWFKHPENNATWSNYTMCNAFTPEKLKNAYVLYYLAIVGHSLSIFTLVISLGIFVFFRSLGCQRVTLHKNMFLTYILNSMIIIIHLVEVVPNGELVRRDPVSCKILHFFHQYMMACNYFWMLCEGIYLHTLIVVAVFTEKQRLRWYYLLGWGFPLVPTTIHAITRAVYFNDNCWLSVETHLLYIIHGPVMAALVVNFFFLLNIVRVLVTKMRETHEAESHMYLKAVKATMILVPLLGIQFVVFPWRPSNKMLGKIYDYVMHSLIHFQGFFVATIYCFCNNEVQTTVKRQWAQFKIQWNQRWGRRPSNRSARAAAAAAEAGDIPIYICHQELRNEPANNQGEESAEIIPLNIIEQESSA
Text: as §1, §2, §3

[6] = target: T2, CT(a) receptor, Y131A mutant (Homo sapiens, UniProt P30988, Y131A); test: cAMP assay, Y131A CT(a); type: cell-based
T2 sequence (P30988 25-474 Y131A): T1 sequence (P30988 25-474 R126A) with A102R, Y107A
Text: as §1, §2, §3

[7] = target: AMY1(a) receptor (CT(a)/RAMP1), WT (Homo sapiens, UniProt O60894+P30988); test: cAMP assay, WT AMY1(a) receptor; type: cell-based; settings: Cos-7, mean±s.e.m.
[8] = target: AMY1(a) receptor (CT(a)/RAMP1), CTR N124A mutant (Homo sapiens, UniProt O60894+P30988, N124A); test: cAMP assay, N124A AMY1(a); type: cell-based; settings: Cos-7, mean±s.e.m.
Text: as §1, §2, §3

## CC(C)C[C@H](NC(=O)[C@H](CC(N)=O)NC(=O)[C@H](CC(N)=O)NC(=O)[C@H](CO)NC(=O)[C@H](CO)NC(=O)[C@H](CCCNC(=N)N)NC(=O)[C@@H](NC(=O)[C@H](CC(C)C)NC(=O)[C@H](Cc1ccccc1)NC(=O)[C@H](CC(N)=O)NC(=O)[C@H](C)NC(=O)[C@H](CC(C)C)NC(=O)[C@H](CCCNC(=N)N)NC(=O)[C@H](CCC(N)=O)NC(=O)[C@@H](NC(=O)[C@H](C)NC(=O)[C@@H]1CSSC[C@H](NC(=O)[C@@H](N)CCCCN)C(=O)N[C@@H](CC(N)=O)C(=O)N[C@@H]([C@@H](C)O)C(=O)N[C@@H](C)C(=O)N[C@@H]([C@@H](C)O)C(=O)N1)[C@@H](C)O)C(C)C)C(=O)NCC(=O)N1CCC[C@H]1C(=O)N[C@H](C(=O)N[C@@H](CC(C)C)C(=O)N1CCC[C@H]1C(=O)N1CCC[C@H]1C(=O)N[C@H](C(=O)N[C@@H](CC(N)=O)C(=O)N[C@H](C(=O)NCC(=O)N[C@@H](CO)C(=O)N[C@@H](CC(N)=O)C(=O)N[C@H](C(=O)N[C@@H](Cc1ccc(O)cc1)C(N)=O)[C@@H](C)O)C(C)C)[C@@H](C)O)C(C)C [rAmy, rat amylin]
[1]
  EC50: 14.8 nM
[2]
  EC50: 5.75 nM
[3]
  EC50: 6.76 nM
[4]
  EC50: 2.19 nM
[5]
  EC50: 7.59 nM
[6]
  EC50: 30.9 nM
[7]; pEC50 WT, paired with N124A
  EC50: 0.182 nM
[7]; paired with D101A, read-out: pEC50 WT (converted)
  EC50: 0.0891 nM
[7]; paired with F99A, read-out: pEC50 WT (converted)
  EC50: 0.126 nM
[7]; paired with F102A, read-out: pEC50 WT (converted)
  EC50: 0.214 nM
[7]; paired with G44A, read-out: pEC50 WT (converted)
  EC50: 0.38 nM
[7]; paired with H121A, read-out: pEC50 WT (converted)
  EC50: 0.186 nM
[7]; paired with M48A, read-out: pEC50 WT (converted)
  EC50: 0.309 nM
[7]; paired with Q52A, read-out: pEC50 WT (converted)
  EC50: 0.219 nM
[7]; paired with R45A, read-out: pEC50 WT (converted)
  EC50: 0.447 nM
[7]; paired with R126A, read-out: pEC50 WT (converted)
  EC50: 0.447 nM
[7]; paired with RAMP1 Y66A, read-out: pEC50 WT (converted)
  EC50: 0.214 nM
[7]; paired with W79A, read-out: pEC50 WT (converted)
  EC50: 0.145 nM
[7]; paired with W128A, read-out: pEC50 WT (converted)
  EC50: 0.126 nM
[7]; paired with Y53A, read-out: pEC50 WT (converted)
  EC50: 0.302 nM
[7]; paired with Y56A, read-out: pEC50 WT (converted)
  EC50: 0.166 nM
[7]; paired with Y131A, read-out: pEC50 WT (converted)
  EC50: 0.182 nM
[8]
  pEC50 mutant: 9.58±0.19
